In patent US20060088886A1, “Topiramate analogs” (priority 2004, published 2006):

Assay: Linearity / percent recovery of topiramate in agglutination immunoassay
Text: Linearity can be measured in order to illustrate an ability to provide results that are directly proportional to the concentration of an analyte in the test sample. As such, linearity typically refers to an overall system response, and the linearity of a system can be measured by testing levels of an analyte, which are known by formulation or known relative to each other. When the system results are plotted against these values, the degree to which the plotted curve conforms to a straight line is a measure of a system linearity.
Briefly, the protocol is used to assess linearity, and the samples with a matrix appropriate to the specimens are analyzed. The following samples are prepared: prepare 1 μg/ml topiramate sample by dilution of Cal B (2.0 μg/ml) with Cal A (0 μg/ml); prepare 3 μg/ml topiramate sample by dilution of Cal C (4.0 μg/ml) with Cal B (2.0 μg/ml); prepare 6 μg/ml topiramate sample by dilution of Cal D (8.0 μg/ml) with Cal C (4.0 μg/ml); prepare 11.9 μg/ml topiramate sample by dilution of Cal E (15.9.0 μg/ml) with Cal C (8.0 μg/ml); and prepare 23.5 μg/ml topiramate sample by dilution of Cal F (31.7 μg/ml) with Cal E (15.9 μg/ml).
The data is collected after a sample or a quality control material is assayed, and reported as the average test result, which is called recovery. The percent recovery is calculated based on the following equation: [formula]

Which Recovered topiramate concentration (Theoretical topiramate concentration 1 μg/ml) does the source give for `CC1(C)O[C@@H]2[C@@H](CO[C@@]3(COS(N)(=O)=O)OC(C)(C)O[C@@H]23)O1` [Topiramate, 2,3:4,5-di-O-isopropylidene-beta-D-fructopyranose sulfamate] here?
Its Recovered topiramate concentration is 0.94 µg/mL.

And the Recovered topiramate concentration (Theoretical topiramate concentration 2 μg/ml)?
The Recovered topiramate concentration was 2.04 µg/mL.

What about the Recovered topiramate concentration (Theoretical topiramate concentration 3 μg/ml) of the same compound?
Its Recovered topiramate concentration is 3.06 µg/mL.

What about the Recovered topiramate concentration (Theoretical topiramate concentration 4 μg/ml) of the same compound?
The Recovered topiramate concentration was 4.05 µg/mL.

What about the Recovered topiramate concentration (Theoretical topiramate concentration 6 μg/ml) of the same compound?
The Recovered topiramate concentration was 6.03 µg/mL.

And the Recovered topiramate concentration (Theoretical topiramate concentration 8 μg/ml)?
Its Recovered topiramate concentration is 7.82 µg/mL.

And the Recovered topiramate concentration (Theoretical topiramate concentration 11.9 μg/ml)?
Its Recovered topiramate concentration is 11.62 µg/mL.

What about the Recovered topiramate concentration (Theoretical topiramate concentration 15.9 μg/ml) of the same compound?
Its Recovered topiramate concentration is 15.59 µg/mL.

What about the Recovered topiramate concentration (Theoretical topiramate concentration 23.5 μg/ml) of the same compound?
Its Recovered topiramate concentration is 23.14 µg/mL.

And the Recovered topiramate concentration (Theoretical topiramate concentration 31.7 μg/ml)?
Its Recovered topiramate concentration is 30.51 µg/mL.
